Our source for the Kd values is article PMC7355663, “Microscale Thermophoresis as a Screening Tool to Predict Melanin Binding of Drugs” (Pharmaceutics, 2020).

Details of assay [1]: method as in PMID 26741026, PMID 29859954. As to conditions: from previous studies; ref [11],[16]; read-out: Kd ± SE, traditional method (Sips isotherm); cited from earlier work.
A short description of assay [2]: Label-free microscale thermophoresis (MST) melanin binding assay. The protocol:
Synthetic melanin was purchased from Sigma Aldrich (#M8631-100 mg). Melanin nanoparticles were prepared as described earlier by Fan et al., and low-binding pipette tips (Maxymum RecoveryTM pipet tips, Corning Incorporated, Salt Lake City, UT, USA) and tubes (No stick microtubes, Alpha Laboratories, Hampshire, UK) were used with both melanin and melanin nanoparticles. Briefly, melanin was dissolved into 1 N NaOH with a concentration of 2 mg/mL and stirred by vortexing. The solution was neutralized by adding an equal volume of 1 N HCl. […] After the final centrifugation, the resulting nanoparticles were suspended into a small volume of sterile water and freeze-dried for 48–72 h (ModulyoD-230, Thermo Savant, Holbrook, NY, USA), and stored at −20 °C until the binding assays.
Melanin binding of each of the 13 model compounds was determined (for the concentrations in the assay, see Table 1). […]
After >2 h incubation, the melanin–ligand complexes were mixed gently with a pipette to ensure melanin solution homogeneity and then transferred into capillaries (Monolith NT.115 Premium capillaries, #MOK025, NanoTemper Technologies GmbH, München, Germany). The samples were analyzed with a Monolith NT.115 pico device using MO.Control Software (both from NanoTemper Technologies GmbH, München, Germany) using nano-blue excitation, LED light adjusted to 60% excitation power, and infrared laser (MST power) set to high. […] Unbound is either the normalized fluorescence signal (Fnorm; MST mode) or raw fluorescence counts (initial fluorescence mode) of the target alone. Bound is either the normalized fluorescence signal or raw fluorescence counts (initial fluorescence mode) of the melanin–ligand complex. […]
The normalized fluorescence is the ratio of relative fluorescence of the selected region after heating (hot region) and relative initial fluorescence before the heating (cold region, i.e., relative fluorescence values before the infrared laser was switched on). […]
Kd determination strategies. The Kd values were tested in both initial fluorescence and the above […]
Background: MST reads how a fluorescent partner responds to local heating, with and without ligand.

Read-outs that look alike come from different tables or passages of the source.

On to `CC(C)NCC(O)COc1cccc2ccccc12` (stereo not shown) [Propranolol], for which the Kd (commonly the concentration at which binding is half-saturated) is 163 ± 100 µM in assay [1]; 80 ± 92 µM in assay [2] (0.5 mg/mL (12.5 µM) melanin nanoparticles, PBS pH 7.4, room temperature, 68% confidence, initial fluorescence mode for compounds marked *, otherwise MST mode, read-out: Kd ± Kd Confidence (MST)); 230 µM in assay [2] (Table S2, normalized fluorescence, 60% excitation power, read-out: Kd, MST mode (Fnorm)); 80 µM in assay [2] (Table S2, raw fluorescence counts before heating, 60% excitation power, read-out: Kd, initial fluorescence mode).
